These results are taken from patent US20210379068A1, “METHODS AND MATERIALS FOR TREATING NEUROPSYCHIATRIC DISORDERS” (Mayo Foundation for Medical Education and Research, priority 2018, published 2021).

What all share (type): in vivo, mouse
The nature of series [1]: Body mass and body composition, INK-ATTAC;db/db mice treated with AP20187. To be noted: AP20187 vs vehicle, 2 months. Here is the method:
INK-ATTAC mice were injected intraperitoneally (i.p.) with AP20187 (10 mg/kg) or vehicle for 3 days every 2 weeks for a total of 8-10 weeks.
(§1) Lean and fat mass of individual mice were determined by quantitative nuclear magnetic resonance using an EchoMRT analyser (Houston, Tex.) and expressed as a function of body weight. Un-anesthetized animals were placed in a plastic tube that was introduced into the EchoMRT instrument. Body composition, comprising fat mass and lean mass, was determined in approximately 90 seconds per animal.

A short description of series [2]: Body weight and body fat, HFD mice treated with Reparixin. The conditions noted are these: HFD C57BL/6 mice; Reparixin 30 mg/kg s.c. twice per day for 2 weeks. How it is done:
Reparixin L-lysine salt (MedChemExpress, #HY-15252) or L-Lysine hydrochloride (MedChemExpress, #HY-N0470) was dissolved in H2O was administered to obese C57BL/6 mice (fed for 2 months with high-fat diet) via subcutaneous injection (30 mg/kg) twice per day for 2 weeks. 2 hours after the last injection mice were tested in open field and elevated plus maze and afterwards dissected. Lean and fat mass of individual mice were determined by quantitative nuclear magnetic resonance using an EchoMRT analyser (Houston, Tex.) and expressed as a function of body weight. Un-anesthetized animals were placed in a plastic tube that was introduced into the EchoMRT instrument. Body composition, comprising fat mass and lean mass, was determined in approximately 90 seconds per animal.

Series [3] can be described thus: Body weight and body composition after Cxcl1 injection. The conditions noted are these: lean C57BL/6, Cxcl1 5 μg/kg i.p. daily for 7 days. Here is the method: Recombinant CXCL1 (Peprotech, #250-11) or vehicle (PBS) was administered to lean C57BL/6 via i.p. injection (5 μg/kg in PBS) daily for 7 days. 2 hours after the last injection mice were tested in open field and elevated plus maze and afterwards dissected.
as §1

“Also recorded” adds a separate entry of the source.

Consider `CC[C@H](C(=O)N1CCCC[C@H]1C(=O)O[C@H](CCc1ccc(OC)c(OC)c1)c1cccc(OCC(=O)NCC(CNC(=O)COc2cccc([C@@H](CCc3ccc(OC)c(OC)c3)OC(=O)[C@@H]3CCCCN3C(=O)[C@@H](CC)c3cc(OC)c(OC)c(OC)c3)c2)CN(C)C)c1)c1cc(OC)c(OC)c(OC)c1` [AP], for which, in series [1], the body composition entry was “No changes; also recorded: did not alter” and the body mass entry is recorded as “No changes; also recorded: did not alter”.

As to `CC(C)Cc1ccc([C@@H](C)C(=O)NS(C)(=O)=O)cc1` [Reparixin], in series [2], the body fat entry is on record as “no alterations; also recorded: no difference” and the body weight entry was “small increase”.

B1: Cxcl1: Recombinant CXCL1 (Peprotech, #250-11) injected i.p. into lean mice (protein, UniProt P12850 25-96, looked up)
Growth-regulated alpha protein: APIANELRCQCLQTMAGIHLKNIQSLKVLPSGPHCTQTEVIATLKNGREACLDPEAPLVQKIVQKMLKGVPK
On to B1, for which, in series [3], the “body composition (body fat)” value was “did not change” and the body weight result is recorded as “decreased slightly”. For the same molecule, in series [3] (listed as Cxcl-1), the “body composition (body fat)” value was “did not experience changes” and the body weight entry is “lost weight”.
